In PMC9314365:

Target: GFP-RalGAPα1
Experiment: affinity purification with mass spectrometry; GFP-RalGAPα1 expressed with HA-RalGAPβ in HEK293 cells; immunoprecipitation with GFP-Trap beads (GFP-binder); SDS-PAGE, in-gel trypsin digestion, LC-MS/MS; empty vectors as control

B1: HA-RalGAPβ (protein, UniProt Q86X10 1-1494)
chain: MYSEWRSLHLVIQNDQGHTSVLHSYPESVGREVANAVVRPLGQVLGTPSVAGSENLLKTDKEVKWTMEVICYGLTLPLDGETVKYCVDVYTDWIMALVLPKDSIPLPVIKEPNQYVQTILKHLQNLFVPRQEQGSSQIRLCLQVLRAIQKLARESSLMARETWEVLLLFLLQINDILLAPPTVQGGIAENLAEKLIGVLFEVWLLACTRCFPTPPYWKTAKEMVANWRHHPAVVEQWSKVICALTSRLLRFTYGPSFPAFKVPDEDASLIPPEMDNECVAQTWFRFLHMLSNPVDLSNPAIISSTPKFQEQFLNVSGMPQELNQYPCLKHLPQIFFRAMRGISCLVDAFLGISRPRSDSAPPTPVNRLSMPQSAAVSTTPPHNRRHRAVTVNKATMKTSTVSTAHASKVQHQTSSTSPLSSPNQTSSEPRPLPAPRRPKVNSILNLFGSWLFDAAFVHCKLHNGINRDSSMTAITTQASMEFRRKGSQMSTDTMVSNPMFDASEFPDNYEAGRAEACGTLCRIFCSKKTGEEILPAYLSRFYMLLIQGLQINDYVCHPVLASVILNSPPLFCCDLKGIDVVVPYFISALETILPDRELSKFKSYVNPTELRRSSINILLSLLPLPHHFGTVKSEVVLEGKFSNDDSSSYDKPITFLSLKLRLVNILIGALQTETDPNNTQMILGAMLNIVQDSALLEAIGCQMEMGGGENNLKSHSRTNSGISSASGGSTEPTTPDSERPAQALLRDYALNTDSAAGLLIRSIHLVTQRLNSQWRQDMSISLAALELLSGLAKVKVMVDSGDRKRAISSVCTYIVYQCSRPAPLHSRDLHSMIVAAFQCLCVWLTEHPDMLDEKDCLKEVLEIVELGISGSKSKNNEQEVKYKGDKEPNPASMRVKDAAEATLTCIMQLLGAFPSPSGPASPCSLVNETTLIKYSRLPTINKHSFRYFVLDNSVILAMLEQPLGNEQNDFFPSVTVLVRGMSGRLAWAQQLCLLPRGAKANQKLFVPEPRPVPKNDVGFKYSVKHRPFPEEVDKIPFVKADLSIPDLHEIVTEELEERHEKLRSGMAQQIAYEIHLEQQSEEELQKRSFPDPVTDCKPPPPAQEFQTARLFLSHFGFLSLEALKEPANSRLPPHLIALDSTIPGFFDDIGYLDLLPCRPFDTVFIFYMKPGQKTNQEILKNVESSRTVQPHFLEFLLSLGWSVDVGRHPGWTGHVSTSWSINCCDDGEGSQQEVISSEDIGASIFNGQKKVLYYADALTEIAFVVPSPVESLTDSLESNISDQDSDSNMDLMPGILKQPSLTLELFPNHTDNLNSSQRLSPSSRMRKLPQGRPVPPLGPETRVSVVWVERYDDIENFPLSELMTEISTGVETTANSSTSLRSTTLEKEVPVIFIHPLNTGLFRIKIQGATGKFNMVIPLVDGMIVSRRALGFLVRQTVINICRRKRLESDSYSPPHVRRKQKITDIVNKYRNKQLEPEFYTSLFQEVGLKNCSS
For B1, the binding was “binds”.

No constants are given. Whether binding was seen depends on the method and setting. Binding seen in cells or lysates may run through a third protein. These calls come from enrichment with a bait or labelling near it, and not all partners need be listed. Tags and fused reporters may be left off the sequences shown.
